Reference: publication PMC3205050
No constants are given. Whether binding was seen depends on the method and setting. For part of these data: In cells and extracts the contact can be indirect. Some results given as binding are weak or reduced against the parent protein; the word gives no strength.

Protein sequences, listed by entry. Tags and fused reporters are not part of them.
UniProt P27008: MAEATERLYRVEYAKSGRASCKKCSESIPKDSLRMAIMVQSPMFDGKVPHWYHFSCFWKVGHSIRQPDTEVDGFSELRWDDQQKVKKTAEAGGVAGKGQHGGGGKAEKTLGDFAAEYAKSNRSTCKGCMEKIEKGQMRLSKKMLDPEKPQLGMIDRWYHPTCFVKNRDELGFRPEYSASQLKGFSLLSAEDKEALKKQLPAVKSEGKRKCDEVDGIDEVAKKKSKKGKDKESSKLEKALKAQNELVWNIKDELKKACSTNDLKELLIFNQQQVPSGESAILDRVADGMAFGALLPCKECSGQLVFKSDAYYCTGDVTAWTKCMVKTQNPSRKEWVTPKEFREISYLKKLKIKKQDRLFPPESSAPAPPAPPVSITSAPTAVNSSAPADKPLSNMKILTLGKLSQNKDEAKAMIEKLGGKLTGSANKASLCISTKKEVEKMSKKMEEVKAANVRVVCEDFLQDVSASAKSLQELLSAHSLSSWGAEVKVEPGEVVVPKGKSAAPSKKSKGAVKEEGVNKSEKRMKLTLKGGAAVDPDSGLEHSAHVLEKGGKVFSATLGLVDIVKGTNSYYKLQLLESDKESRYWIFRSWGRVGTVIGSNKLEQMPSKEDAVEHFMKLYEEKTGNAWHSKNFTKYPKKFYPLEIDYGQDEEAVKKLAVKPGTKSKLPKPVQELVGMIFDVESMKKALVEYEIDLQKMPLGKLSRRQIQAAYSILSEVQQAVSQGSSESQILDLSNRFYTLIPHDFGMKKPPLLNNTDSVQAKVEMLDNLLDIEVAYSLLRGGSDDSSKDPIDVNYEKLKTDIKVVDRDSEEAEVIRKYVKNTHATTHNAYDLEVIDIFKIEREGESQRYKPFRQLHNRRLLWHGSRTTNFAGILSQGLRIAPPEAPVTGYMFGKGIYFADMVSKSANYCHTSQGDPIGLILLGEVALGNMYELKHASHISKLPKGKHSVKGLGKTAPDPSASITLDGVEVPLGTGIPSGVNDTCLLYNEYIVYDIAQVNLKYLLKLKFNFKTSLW
UniProt P84025: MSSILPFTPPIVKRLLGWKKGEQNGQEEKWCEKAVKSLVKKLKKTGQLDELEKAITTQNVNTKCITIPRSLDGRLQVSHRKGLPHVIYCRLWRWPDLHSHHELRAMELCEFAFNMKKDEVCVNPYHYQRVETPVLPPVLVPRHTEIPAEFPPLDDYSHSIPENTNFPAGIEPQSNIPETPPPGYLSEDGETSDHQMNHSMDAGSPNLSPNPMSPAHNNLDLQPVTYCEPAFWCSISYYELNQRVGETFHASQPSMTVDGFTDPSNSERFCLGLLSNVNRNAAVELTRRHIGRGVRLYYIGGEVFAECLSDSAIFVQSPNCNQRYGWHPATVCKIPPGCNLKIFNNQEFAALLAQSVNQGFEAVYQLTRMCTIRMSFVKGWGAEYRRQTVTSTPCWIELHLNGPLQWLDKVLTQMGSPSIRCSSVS
UniProt P84022: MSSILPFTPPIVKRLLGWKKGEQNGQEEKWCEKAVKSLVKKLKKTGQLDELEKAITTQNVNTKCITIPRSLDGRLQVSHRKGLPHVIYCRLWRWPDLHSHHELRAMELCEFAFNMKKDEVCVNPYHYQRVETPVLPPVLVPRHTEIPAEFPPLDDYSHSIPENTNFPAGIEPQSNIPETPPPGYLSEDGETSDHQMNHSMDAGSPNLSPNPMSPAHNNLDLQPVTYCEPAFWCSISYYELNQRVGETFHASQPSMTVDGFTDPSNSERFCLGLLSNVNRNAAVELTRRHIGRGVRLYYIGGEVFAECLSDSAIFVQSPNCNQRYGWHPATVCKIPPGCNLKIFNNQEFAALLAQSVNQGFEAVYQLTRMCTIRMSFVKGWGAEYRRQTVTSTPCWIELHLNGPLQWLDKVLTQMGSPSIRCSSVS

What was measured:
[1] = biological target: poly(ADP-ribose) polymerase 1, endogenous in nuclear extracts of rat VSMCs (rat (endogenous in rat VSMCs)) (UniProt P27008); assay: co-IP; 500 µg nuclear extracts from TGF-β1-treated rat VSMCs; antibody 1 hour at 4°C, protein-G agarose 12 hours at 4°C, washed 4 times with lysis buffer; western blot; unspecific IgG as negative control
[2] = biological target: poly(ADP-ribose) polymerase 1, endogenous in nuclear extracts of rat VSMCs (rat (endogenous in rat VSMCs)) (UniProt P27008); assay: far-Western, overlay or dot blot; nuclear extracts of rat VSMCs resolved by SDS-PAGE and transferred to PVDF; membrane in Hyb-75 buffer (20 mmol/L HEPES pH 7.6, 75 mmol/L KCl) with 5% non-fat milk overnight at 4°C; probed with 1 µg/ml recombinant protein (PARP1 or pSmad3) at room temperature for 1 hour; detected with anti-PARP1 or anti-Smad3 antibody; only the binder purified
[3] = biological target: phosphorylated Smad3, endogenous in nuclear extracts of TGF-β1-treated rat VSMCs (rat (endogenous in rat VSMCs)) (UniProt P84025); assay: co-IP; 500 µg nuclear extracts from TGF-β1-treated rat VSMCs; antibody 1 hour at 4°C, protein-G agarose 12 hours at 4°C, washed 4 times with lysis buffer; western blot; unspecific IgG as negative control

With “phosphorylated Smad3, endogenous in nuclear extracts of TGF-β1-treated rat VSMCs (from UniProt P84025 1-425)” the binding [1] was “binds”.

In the case of “phosphorylated Smad3, recombinant protein (from UniProt P84022 1-425)”, the binding [2] is reported as “binds”.

For “poly(ADP-ribose) polymerase 1, endogenous in nuclear extracts of rat VSMCs (from UniProt P27008 1-1014) (enzyme)”, the binding [3] was “binds”.
